These are yes or no findings as the source states them, for the method shown. Some binding calls cover weakened binding; strength is not graded here.
Molecular target: T1, Mmp-RpoD (subunit D of the archaeal RNA polymerase of M. maripaludis) (Methanococcus maripaludis S2 (endogenous in M. maripaludis S2)) (UniProt Q6LXM8)
T1 sequence: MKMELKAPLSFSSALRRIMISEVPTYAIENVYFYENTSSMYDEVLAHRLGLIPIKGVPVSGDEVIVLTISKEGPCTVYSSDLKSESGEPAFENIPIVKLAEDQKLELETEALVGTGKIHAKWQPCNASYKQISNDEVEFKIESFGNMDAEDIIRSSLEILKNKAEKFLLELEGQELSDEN
Experiment: SEC; S2 cell extract (lysis buffer 50 mM Tris-HCl pH 7.5, 150 mM NaCl, 0.05% NP-40, 10% glycerol), with or without RNase A treatment at 37°C for 30 min, 500 μg fractionated on Superdex 200 10/300 GL; fractions western blotted

B1: Mmp-aCPSF1 (archaeal ribonuclease aCPSF1 of Methanococcus maripaludis) (enzyme, UniProt Q6LZD5 1-635)
chain: MSAEDILNEIKAAVINKAPGNAVITDVEFEGSEVVIYAKNPELFSNNLIKEFARDFRKRLAIRPDPSVLVEPDIAKDKILKIVPEDAEITNCIFDANTGEVIIESKKPGLVIGKEGSTLEDIKKAIQWAPKPVRTPPIPSDTIKAIRATMYRERADVKDILRRIGRRIHRDVRLRDDSWVRTSFLGGSREVGRTCLYHQTPESRILVDCGINIAVEDEKAFPHFDAPEFSIEEIDAVVVTHAHLDHCGFIPGLFRYGYDGPVYCTKPTRDLMTLLQKDYVDITEKEGKNVPYSSKDIKNCIKHTIPLDYGVTTDIAPAIKLTMHNAGHILGSAIAHCHVGDGLYNVAYTGDIKFEASRLLEPAVCQFPRLETLIIESTYGGYDDVLPERDETEKEFLRVIAETIARKGKAIIPVFGIGRAQELMLVLEEGYNQGIFNAPVYLDGMIWEATAIHTAYPEYLSKNMRNRIFHEGDNPFLSEVFKKVKNTNDRRNIMDSDEPGIILTTSGMLSGGPSVEYFKNLADDEKNSIVFVGYQSEGTLGRKIQKGFKEIPLMGKNGRSKAVKVNLSVHTLEGFSGHSDRKQLIKYLRKLKPIPDRILTVHGEVSKCIDLASTAYKLFKKETKAPMNLDSIRLR
Q: B1 was tested. Which binding did it give?
A: binds
